The supplement of paper PMC10849652
The other results are listed elsewhere or left out.

By UniProt entry, the sequences of proteins in these tests, tags left out. Where a name states a change or a piece, a line headed by the entry shows the natural chain unless it says otherwise.
UniProt Q96JM3: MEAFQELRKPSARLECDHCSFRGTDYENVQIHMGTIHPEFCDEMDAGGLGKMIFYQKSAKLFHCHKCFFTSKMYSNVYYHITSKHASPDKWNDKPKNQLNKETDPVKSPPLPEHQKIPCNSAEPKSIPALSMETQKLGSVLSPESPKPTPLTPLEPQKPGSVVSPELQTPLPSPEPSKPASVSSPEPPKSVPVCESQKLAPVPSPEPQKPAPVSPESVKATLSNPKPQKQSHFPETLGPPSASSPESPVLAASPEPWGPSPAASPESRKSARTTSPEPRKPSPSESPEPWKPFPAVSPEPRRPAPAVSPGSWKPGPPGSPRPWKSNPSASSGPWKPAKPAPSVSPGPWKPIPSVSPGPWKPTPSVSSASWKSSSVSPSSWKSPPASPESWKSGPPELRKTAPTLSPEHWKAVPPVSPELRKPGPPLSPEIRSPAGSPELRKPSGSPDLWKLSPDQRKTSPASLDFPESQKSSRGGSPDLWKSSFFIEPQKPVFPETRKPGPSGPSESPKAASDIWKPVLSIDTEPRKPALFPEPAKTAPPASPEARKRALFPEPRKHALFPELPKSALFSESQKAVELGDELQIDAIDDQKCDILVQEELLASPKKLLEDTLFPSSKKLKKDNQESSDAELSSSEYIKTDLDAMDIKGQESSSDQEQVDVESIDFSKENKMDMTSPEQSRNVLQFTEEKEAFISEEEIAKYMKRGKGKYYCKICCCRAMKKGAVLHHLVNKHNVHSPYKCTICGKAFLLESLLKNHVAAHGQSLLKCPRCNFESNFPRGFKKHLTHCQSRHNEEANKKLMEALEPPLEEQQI
UniProt P23528, whole entry, looked up: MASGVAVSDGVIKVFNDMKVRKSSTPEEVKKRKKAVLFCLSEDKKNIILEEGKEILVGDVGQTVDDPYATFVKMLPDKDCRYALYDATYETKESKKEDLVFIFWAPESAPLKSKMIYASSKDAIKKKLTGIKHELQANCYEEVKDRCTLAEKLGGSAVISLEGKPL
UniProt P11802: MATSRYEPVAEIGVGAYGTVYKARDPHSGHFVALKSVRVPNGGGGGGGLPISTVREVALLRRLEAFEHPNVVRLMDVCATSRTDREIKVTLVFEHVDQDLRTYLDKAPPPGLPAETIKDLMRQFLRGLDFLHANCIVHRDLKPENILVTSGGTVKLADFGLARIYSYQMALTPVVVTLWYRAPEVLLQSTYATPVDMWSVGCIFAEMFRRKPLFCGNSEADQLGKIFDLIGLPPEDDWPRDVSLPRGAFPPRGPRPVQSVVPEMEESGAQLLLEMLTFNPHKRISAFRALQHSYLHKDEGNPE
UniProt Q8TAP6: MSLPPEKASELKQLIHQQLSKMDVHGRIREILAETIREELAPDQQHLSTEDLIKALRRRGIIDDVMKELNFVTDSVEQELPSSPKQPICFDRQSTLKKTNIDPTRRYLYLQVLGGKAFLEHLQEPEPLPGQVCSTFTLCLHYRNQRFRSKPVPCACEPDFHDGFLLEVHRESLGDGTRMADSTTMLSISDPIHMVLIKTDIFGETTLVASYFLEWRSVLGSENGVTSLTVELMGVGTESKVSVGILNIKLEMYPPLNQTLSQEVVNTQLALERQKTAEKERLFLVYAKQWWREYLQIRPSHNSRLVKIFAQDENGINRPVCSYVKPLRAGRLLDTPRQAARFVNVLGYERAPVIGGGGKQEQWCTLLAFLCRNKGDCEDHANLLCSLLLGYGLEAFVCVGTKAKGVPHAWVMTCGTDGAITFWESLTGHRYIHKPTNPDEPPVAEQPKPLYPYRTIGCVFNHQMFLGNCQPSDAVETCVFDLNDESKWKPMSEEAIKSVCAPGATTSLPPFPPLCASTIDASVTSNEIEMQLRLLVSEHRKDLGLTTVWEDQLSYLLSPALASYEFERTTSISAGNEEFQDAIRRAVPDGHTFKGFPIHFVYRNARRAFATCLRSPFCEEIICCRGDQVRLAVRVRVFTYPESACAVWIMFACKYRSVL
UniProt Q9BRQ6: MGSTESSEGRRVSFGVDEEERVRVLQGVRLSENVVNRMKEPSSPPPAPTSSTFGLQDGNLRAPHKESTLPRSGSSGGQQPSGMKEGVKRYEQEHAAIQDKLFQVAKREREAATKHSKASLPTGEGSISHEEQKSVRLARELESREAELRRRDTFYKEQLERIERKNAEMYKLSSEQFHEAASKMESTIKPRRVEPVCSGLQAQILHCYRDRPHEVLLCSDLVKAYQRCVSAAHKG
UniProt P50750, whole entry, looked up: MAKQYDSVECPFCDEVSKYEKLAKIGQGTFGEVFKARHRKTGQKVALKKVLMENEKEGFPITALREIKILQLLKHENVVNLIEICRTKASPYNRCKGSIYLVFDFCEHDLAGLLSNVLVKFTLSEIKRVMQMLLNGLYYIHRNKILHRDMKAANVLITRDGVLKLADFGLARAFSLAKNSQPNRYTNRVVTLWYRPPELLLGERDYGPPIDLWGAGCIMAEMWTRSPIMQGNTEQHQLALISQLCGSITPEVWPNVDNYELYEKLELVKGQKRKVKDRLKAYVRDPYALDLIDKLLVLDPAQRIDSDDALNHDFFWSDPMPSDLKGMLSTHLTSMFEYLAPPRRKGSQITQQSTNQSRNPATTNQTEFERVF
UniProt Q9BY43: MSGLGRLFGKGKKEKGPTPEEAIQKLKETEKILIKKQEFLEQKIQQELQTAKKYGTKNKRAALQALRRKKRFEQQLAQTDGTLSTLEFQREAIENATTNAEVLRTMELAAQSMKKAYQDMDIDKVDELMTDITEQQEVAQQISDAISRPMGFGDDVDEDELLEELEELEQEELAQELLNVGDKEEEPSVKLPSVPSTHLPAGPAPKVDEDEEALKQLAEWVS
UniProt Q9Y5P4: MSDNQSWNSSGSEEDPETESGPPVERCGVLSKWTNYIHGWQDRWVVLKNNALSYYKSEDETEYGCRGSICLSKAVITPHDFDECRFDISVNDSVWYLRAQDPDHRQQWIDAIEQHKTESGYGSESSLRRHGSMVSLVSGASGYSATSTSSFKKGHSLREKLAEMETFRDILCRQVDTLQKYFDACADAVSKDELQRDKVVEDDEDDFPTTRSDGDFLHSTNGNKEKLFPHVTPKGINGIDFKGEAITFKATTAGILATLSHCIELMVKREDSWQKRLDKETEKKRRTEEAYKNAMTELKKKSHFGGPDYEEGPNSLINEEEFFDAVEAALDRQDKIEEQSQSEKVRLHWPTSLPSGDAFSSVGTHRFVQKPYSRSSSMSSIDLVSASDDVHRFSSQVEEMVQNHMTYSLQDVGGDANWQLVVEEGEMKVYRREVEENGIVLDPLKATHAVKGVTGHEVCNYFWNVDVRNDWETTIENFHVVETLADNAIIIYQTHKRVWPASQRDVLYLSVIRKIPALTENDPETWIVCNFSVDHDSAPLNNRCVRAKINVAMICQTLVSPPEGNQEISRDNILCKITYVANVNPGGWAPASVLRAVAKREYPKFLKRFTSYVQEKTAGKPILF
UniProt Q9UKY7: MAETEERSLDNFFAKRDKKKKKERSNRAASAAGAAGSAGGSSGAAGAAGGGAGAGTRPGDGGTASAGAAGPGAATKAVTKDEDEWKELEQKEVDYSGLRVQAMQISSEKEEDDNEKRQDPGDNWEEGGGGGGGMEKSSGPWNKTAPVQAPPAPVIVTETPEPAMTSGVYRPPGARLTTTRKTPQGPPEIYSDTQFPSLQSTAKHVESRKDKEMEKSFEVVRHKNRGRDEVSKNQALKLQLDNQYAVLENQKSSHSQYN
UniProt Q96JB5: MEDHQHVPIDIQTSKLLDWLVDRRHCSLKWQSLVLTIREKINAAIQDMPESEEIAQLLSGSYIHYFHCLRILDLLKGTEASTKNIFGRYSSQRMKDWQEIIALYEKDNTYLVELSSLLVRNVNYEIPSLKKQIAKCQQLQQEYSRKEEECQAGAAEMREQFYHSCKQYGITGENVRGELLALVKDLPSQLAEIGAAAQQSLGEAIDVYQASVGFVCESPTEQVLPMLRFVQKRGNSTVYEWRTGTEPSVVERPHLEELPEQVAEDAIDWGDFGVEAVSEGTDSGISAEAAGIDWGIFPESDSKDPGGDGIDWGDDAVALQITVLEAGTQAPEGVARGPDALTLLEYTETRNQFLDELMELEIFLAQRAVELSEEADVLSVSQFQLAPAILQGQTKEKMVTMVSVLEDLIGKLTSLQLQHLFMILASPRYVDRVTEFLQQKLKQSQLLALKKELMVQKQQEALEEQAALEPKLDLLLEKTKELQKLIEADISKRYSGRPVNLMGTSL
UniProt Q96SN8: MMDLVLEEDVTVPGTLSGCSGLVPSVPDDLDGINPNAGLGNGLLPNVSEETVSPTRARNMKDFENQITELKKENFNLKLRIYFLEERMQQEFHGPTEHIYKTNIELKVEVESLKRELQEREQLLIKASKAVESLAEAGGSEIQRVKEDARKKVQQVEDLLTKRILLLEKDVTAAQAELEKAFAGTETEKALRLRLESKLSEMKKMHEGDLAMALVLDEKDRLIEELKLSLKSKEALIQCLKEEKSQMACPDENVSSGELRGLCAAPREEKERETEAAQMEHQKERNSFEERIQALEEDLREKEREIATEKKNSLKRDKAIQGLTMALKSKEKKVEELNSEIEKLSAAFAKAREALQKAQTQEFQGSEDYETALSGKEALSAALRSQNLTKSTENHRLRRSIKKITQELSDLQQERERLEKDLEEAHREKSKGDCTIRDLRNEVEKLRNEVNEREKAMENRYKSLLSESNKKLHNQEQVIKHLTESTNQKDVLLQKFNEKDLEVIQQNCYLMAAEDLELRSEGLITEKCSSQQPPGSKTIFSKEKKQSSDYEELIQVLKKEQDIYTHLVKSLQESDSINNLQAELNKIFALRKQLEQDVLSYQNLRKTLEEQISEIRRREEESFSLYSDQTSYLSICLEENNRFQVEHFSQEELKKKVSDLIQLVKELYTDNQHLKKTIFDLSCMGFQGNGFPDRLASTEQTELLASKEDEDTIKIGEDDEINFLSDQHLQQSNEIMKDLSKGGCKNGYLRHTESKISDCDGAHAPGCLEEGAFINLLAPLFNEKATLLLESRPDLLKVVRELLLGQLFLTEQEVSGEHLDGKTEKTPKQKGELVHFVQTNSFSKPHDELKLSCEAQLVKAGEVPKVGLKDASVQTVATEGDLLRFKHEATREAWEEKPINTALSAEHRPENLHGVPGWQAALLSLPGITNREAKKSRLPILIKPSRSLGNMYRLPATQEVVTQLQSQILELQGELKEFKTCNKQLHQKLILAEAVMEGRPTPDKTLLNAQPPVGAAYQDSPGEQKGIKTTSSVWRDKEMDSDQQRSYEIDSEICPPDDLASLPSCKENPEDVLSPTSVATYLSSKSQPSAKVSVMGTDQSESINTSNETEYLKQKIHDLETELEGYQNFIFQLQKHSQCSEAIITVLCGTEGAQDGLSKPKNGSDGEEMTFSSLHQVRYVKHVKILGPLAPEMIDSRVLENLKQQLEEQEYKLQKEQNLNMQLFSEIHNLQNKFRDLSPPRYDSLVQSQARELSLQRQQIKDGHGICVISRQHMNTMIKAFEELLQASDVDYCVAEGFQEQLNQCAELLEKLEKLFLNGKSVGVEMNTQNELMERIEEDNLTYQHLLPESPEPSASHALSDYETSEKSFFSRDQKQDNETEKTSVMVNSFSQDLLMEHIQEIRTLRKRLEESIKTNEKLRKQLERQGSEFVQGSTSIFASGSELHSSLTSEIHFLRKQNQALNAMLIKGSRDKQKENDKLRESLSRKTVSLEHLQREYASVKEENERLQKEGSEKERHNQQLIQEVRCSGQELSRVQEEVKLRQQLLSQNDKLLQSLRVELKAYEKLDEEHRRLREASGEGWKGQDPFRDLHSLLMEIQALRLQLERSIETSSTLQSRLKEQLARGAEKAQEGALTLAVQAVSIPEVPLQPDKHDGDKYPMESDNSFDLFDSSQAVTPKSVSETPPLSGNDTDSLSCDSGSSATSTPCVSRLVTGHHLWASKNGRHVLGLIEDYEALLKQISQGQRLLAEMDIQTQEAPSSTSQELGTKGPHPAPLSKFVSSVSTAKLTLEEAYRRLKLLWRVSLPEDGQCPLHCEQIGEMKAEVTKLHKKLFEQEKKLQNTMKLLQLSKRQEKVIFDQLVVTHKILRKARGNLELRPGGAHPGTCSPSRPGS
UniProt P57076: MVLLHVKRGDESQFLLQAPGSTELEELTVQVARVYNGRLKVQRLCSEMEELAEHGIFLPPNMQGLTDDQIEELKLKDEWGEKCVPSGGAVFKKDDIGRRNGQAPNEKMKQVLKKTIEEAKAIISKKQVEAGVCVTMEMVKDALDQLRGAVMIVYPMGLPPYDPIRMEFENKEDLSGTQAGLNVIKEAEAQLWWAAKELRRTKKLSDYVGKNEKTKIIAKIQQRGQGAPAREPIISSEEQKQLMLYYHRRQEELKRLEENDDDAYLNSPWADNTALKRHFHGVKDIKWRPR
UniProt Q96CF2: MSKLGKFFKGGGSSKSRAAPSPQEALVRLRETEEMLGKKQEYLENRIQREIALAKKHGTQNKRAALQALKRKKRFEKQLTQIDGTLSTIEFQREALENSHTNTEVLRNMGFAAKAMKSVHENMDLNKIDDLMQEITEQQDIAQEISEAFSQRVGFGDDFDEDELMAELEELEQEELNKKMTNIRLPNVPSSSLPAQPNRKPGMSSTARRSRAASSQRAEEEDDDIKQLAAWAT

Experiments:
Test in all cases: log2 fold change, soluble protein after heating vs DMSO (PISA); higher = thermal stabilisation; K562 cells, 10 uM, 30 min; active = over 0.2 and 3.5 SD of the protein, either way, in both replicates (recomputed)
[1] = compound: COC1=CC=C(C=C1)CN2C=CC3=C2C=C(C=C3)C(=O)NO
Outline: (§1)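 K562 cells (2×10^6 cells/mL) were treated with 10 μM compound for 30 min, and aliquots were heated for 3 min over 48°C-58°C. Pooled aliquots were extracted in PBS with 0.5% NP-40 at 4°C, and the supernatant after 21,000xg for 90 min was measured by TMTpro 16plex LC-MS/MS with channel sums equalised. Reported thermal stability, relative to control samples and from duplicates, is a log2 fold change.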

[2] = compound: CON(C)C(=O)N1N=C(c2cc(F)ccc2F)S[C@@]1(CCCN)c1ccccc1 [filanesib]
Outline: as §1

[3] = compound: CO[C@H]1C[C@@H]2CC[C@@H](C)[C@@](O)(O2)C(=O)C(=O)N2CCCC[C@H]2C(=O)O[C@H]([C@H](C)C[C@@H]2CC[C@H](n3cnnn3)[C@H](OC)C2)CC(=O)[C@H](C)/C=C(\C)[C@@H](O)[C@@H](OC)C(=O)[C@H](C)C[C@H](C)/C=C/C=C/C=C/1C [zotarolimus]
Outline: as §1

[4] = compound: COc1cc(C(=O)O)ccc1NC(=O)[C@@H]1N[C@@H](CC(C)(C)C)[C@](C#N)(c2ccc(Cl)cc2F)[C@H]1c1cccc(Cl)c1F [idasanutlin]
Outline: as §1

[5] = compound: COc1cc(Nc2ncc3c(n2)-c2ccc(Cl)cc2C(c2c(F)cccc2OC)=NC3)ccc1C(=O)O [alisertib]
Outline: as §1

[6] = compound: COc1cc2nc(-c3cc(F)ccc3O)nc(N[C@@H]3CNC[C@H]3C(C)(C)O)c2cc1OC
Outline: as §1

[7] = compound: COc1cc2ncnc(Nc3ccc(F)c(Cl)c3)c2cc1OCCCN1CCOCC1 [gefitinib]
Outline: as §1

[8] = compound: COc1cccc2cc(-c3nc([C@H]4CC[C@H](C(=O)O)CC4)n4ncnc(N)c34)[nH]c12
Outline: as §1

[9] = compound: CS(=O)(=O)CCNCc1ccc(-c2ccc3ncnc(Nc4ccc(OCc5cccc(F)c5)c(Cl)c4)c3c2)o1 [lapatinib]
Outline: as §1

[10] = compound: CS(=O)(=O)N1CCN(Cc2cc3nc(-c4cccc5[nH]ncc45)nc(N4CCOCC4)c3s2)CC1 [pictilisib]
Outline: as §1

Measured: log2 fold change

CEP170 isoform 3 (UniProt Q5SW79)
inactive: [1] 0.224

CEP350 (UniProt Q5VT06)
inactive: [1] -0.263 | [2] 0.111 | [3] 0.113 | [4] 0.031 | [5] -0.004 | [6] -0.192 | [7] 0.055 | [8] -0.214 | [9] 0.024 | [10] -0.166

CDC42BPB (UniProt Q9Y5S2)
inactive: [1] -0.062 | [2] 0.147 | [3] 0.089 | [4] 0.062 | [5] -0.1 | [6] -0.371 | [7] -0.07 | [8] 0.071 | [9] -0.009 | [10] 0.025

CENPH (UniProt Q9H3R5)
inactive: [1] -0.061 | [2] 0.079 | [3] 0.09 | [4] 0.17 | [5] 0.047 | [6] 0.096 | [7] -0.082 | [8] 0 | [9] -0.075

CHAMP1 (UniProt Q96JM3)
inactive: [1] -0.001 | [2] -0.008 | [3] 0.07 | [4] 0.005 | [5] 0.006 | [6] 0.025 | [7] 0.029 | [8] 0.022 | [9] -0.065 | [10] 0.107

2 neighbouring records already listed:
CDC42BPB (UniProt Q9Y5S2)
inactive: [1] -0.062 | [2] 0.147 | [3] 0.089 | [4] 0.062 | [5] -0.1 | [6] -0.371 | [7] -0.07 | [8] 0.071 | [9] -0.009 | [10] 0.025

CENPH (UniProt Q9H3R5)
inactive: [1] -0.061 | [2] 0.079 | [3] 0.09 | [4] 0.17 | [5] 0.047 | [6] 0.096 | [7] -0.082 | [8] 0 | [9] -0.075

Continued:

CDC42SE1 (UniProt Q9NRR8)
inactive: [1] -0.011 | [2] -0.049 | [3] 0 | [4] -0.093 | [5] 0.003 | [6] 0.036 | [7] -0.025 | [8] -0.168 | [9] -0.088

CHCHD1 (UniProt Q96BP2)
inactive: [1] 0.037 | [2] -0.017 | [3] -0.001 | [4] 0.082 | [5] -0.077 | [6] -0.198 | [7] -0.042 | [8] 0.161 | [9] -0.055 | [10] -0.193

CFL1 (UniProt P23528)
inactive: [1] -0.045 | [2] -0.077 | [3] 0.025 | [4] -0.028 | [5] -0.059 | [6] -0.024 | [7] -0.009 | [8] -0.041 | [9] 0.03 | [10] -0.002

CDK16 isoform 2 (UniProt Q00536)
inactive: [1] 0.029 | [2] 0.021 | [3] -0.028 | [4] -0.036 | [5] 0.02 | [6] 0.252 | [7] -0.086 | [8] 0.037 | [9] 0.002

CDK4 (UniProt P11802)
inactive: [1] -0.111 | [2] 0.09 | [3] -0.071 | [4] 0.061 | [5] 0.062 | [6] -0.049 | [7] 0.017 | [8] -0.057 | [9] -0.031

CDK1 (UniProt P06493)
inactive: [1] 0.04 | [2] 0.024 | [3] 0.007 | [4] 0.02 | [5] -0.083 | [6] -0.036 | [7] 0.009 | [8] 0.017 | [9] 0.008 | [10] -0.002

CEP76 (UniProt Q8TAP6)
inactive: [1] -0.04 | [2] 0.048 | [3] -0.027 | [4] -0.022 | [5] -0.029 | [6] 0.039 | [7] 0.02 | [8] 0.087 | [9] -0.074 | [10] -0.015

CEP192 (UniProt Q8TEP8)
inactive: [1] -0.281 | [2] 0.124 | [3] -0.119 | [4] -0.007 | [5] 0.366 | [6] 0.068 | [7] 0 | [8] 0.089 | [9] -0.073 | [10] 0.104

CHCHD6 (UniProt Q9BRQ6)
inactive: [1] -0.024 | [2] -0.1 | [3] -0.171 | [4] -0.022 | [5] 0.138 | [6] 0.09 | [7] -0.078 | [8] -0.028 | [9] -0.162 | [10] 0.031

CHD3 isoform 3 (UniProt Q12873)
inactive: [1] -0.137 | [2] 0.082 | [3] 0.174 | [4] 0.097 | [5] -0.001 | [6] -0.207 | [7] 0 | [8] -0.051 | [9] -0.016 | [10] -0.024

CDK11B (UniProt P21127)
inactive: [1] -0.253 | [2] -0.009 | [3] -0.046 | [4] -0.094 | [5] 0.011 | [6] 0.151 | [7] 0.095 | [8] 0.097 | [9] -0.069 | [10] -0.057

CDK9 isoform 2 (UniProt P50750)
inactive: [1] -0.103 | [2] 0.154 | [3] 0.015 | [4] 0.114 | [5] -0.093 | [6] -0.182 | [7] -0.031 | [8] -0.067 | [9] -0.055 | [10] 0.014

CENPO (UniProt Q9BU64)
inactive: [1] -0.081 | [2] -0.047 | [3] 0.045 | [4] 0.047 | [5] -0.166 | [6] -0.041 | [7] -0.243 | [8] -0.203 | [9] -0.045

CHMP4A isoform 2 (UniProt Q9BY43)
inactive: [1] -0.018 | [2] -0.013 | [3] -0.054 | [4] 0.037 | [5] -0.043 | [6] 0.087 | [7] 0.004 | [8] 0.049 | [9] -0.078 | [10] 0.036

CERT isoform 3 (UniProt Q9Y5P4)
inactive: [1] -0.025 | [2] 0.001 | [3] 0.2 | [4] -0.145 | [5] -0.064 | [6] -0.201 | [7] 0.157 | [8] -0.004 | [9] 0.247 | [10] 0.186

CDSN (UniProt Q15517)
inactive: [1] 0.704 | [2] 0.324 | [3] -0.516 | [4] 0.405 | [5] 1.63 | [6] 0.236 | [7] 0.102 | [8] -0.067 | [9] -0.096 | [10] -0.031

CEP83 (UniProt Q9Y592)
inactive: [1] -0.237

CDYL (UniProt Q9Y232)
inactive: [1] 0.047 | [2] 0.026 | [3] 0 | [4] 0.029 | [5] -0.069 | [6] -0.008 | [7] 0.025 | [8] 0.001 | [9] -0.022 | [10] 0.104

CDK6 (UniProt Q00534)
inactive: [1] -0.012 | [2] 0.037 | [3] 0.021 | [4] -0.06 | [5] -0.051 | [6] 0.036 | [7] 0 | [8] -0.012 | [9] -0.019 | [10] 0.015

CHAF1B (UniProt Q13112)
inactive: [1] -0.01 | [2] -0.048 | [3] -0.023 | [4] -0.016 | [5] -0.079 | [6] 0.041 | [7] -0.014 | [8] 0.048 | [9] -0.031 | [10] 0.047

CDV3 (UniProt Q9UKY7)
inactive: [1] 0.176 | [2] -0.071 | [3] -0.014 | [4] -0.015 | [5] -0.065 | [6] 0.022 | [7] -0.009 | [8] 0.065 | [9] 0.004 | [10] -0.011

CHCHD4 isoform 2 (UniProt Q8N4Q1)
inactive: [1] 0 | [2] -0.059 | [3] 0.032 | [4] -0.043 | [5] -0.099 | [6] -0.285 | [7] 0.011 | [8] 0.102 | [9] 0.341 | [10] -0.016

CEP170 (UniProt Q5SW79)
inactive: [1] -0.018 | [2] 0.199 | [3] 0.026 | [4] 0.148 | [5] -0.051 | [6] -0.181 | [7] 0.005 | [8] -0.049 | [9] 0.13 | [10] 0.091

CDK5RAP3 isoform 4 (UniProt Q96JB5)
inactive: [1] -0.008 | [2] -0.085 | [3] 0.026 | [4] -0.091 | [5] -0.001 | [6] 0.075 | [7] 0.024 | [8] 0.004 | [9] -0.034 | [10] -0.015

CDK5RAP2 (UniProt Q96SN8)
inactive: [1] -0.265

CDNF (UniProt Q49AH0)
inactive: [1] -0.111

CFAP298 (UniProt P57076)
inactive: [1] 0.011 | [2] 0.185 | [3] 0.105 | [4] 0.268 | [5] -0.053 | [6] -0.097 | [7] 0.028 | [8] -0.249 | [9] 0.069 | [10] 0.098

CHMP4C (UniProt Q96CF2)
inactive: [1] 0.163 | [2] 0.014 | [3] -0.028 | [4] -0.001 | [5] 0.037 | [6] 0.064 | [7] -0.014 | [8] 0.02 | [9] -0.027 | [10] -0.005
